Measurements taken from PubChem BioAssay AID493014 (National Center for Advancing Translational Sciences (NCATS), 2011).
Some of the results follow. Shown are side measurements of this screen, not its main read-out; they come without a call. Compounds called inactive in the main read-out are mostly missing here. The note in brackets gives the kind of curve behind each potency; many fits are weak.

Test: qHTS Assay to Find Inhibitors of Chronic Active B-Cell Receptor Signaling
Conditions: ABC-DLBCL IkBa-CBG/CBR reporter, luminescence ratio (green luciferase fused to IkBa over red control in TMD8 lymphoma cells), 4 h
How it was run: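 Doxycycline induced both beetle luciferases in TMD8 lymphoma cells; IKK-driven degradation limits the IkappaBalpha-fused green signal, while red luminescence normalises for cell number and nonspecific effects. Compounds tested up to 46 uM, 4 hrs.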

[1] = measured here: CBR red luminescence, cell number
[2] = measured here: IkBa-CBG green luminescence

| Compound | AC50 [1] | AC50 [2] |
| --- | --- | --- |
| Cc1ccc(Cn2c(SCC(=O)N/N=C/c3ccc(C)o3)nc3ccccc32)cc1 | 16.4 µM [falling, partial curve, poor fit] |  |
| COc1cc(C(=O)COC(=O)C2CCN(c3ccc(C(F)(F)F)cn3)CC2)ccc1OC(F)F | 29.1 µM [rising, single point] |  |
| Cc1ccc(-c2nc(N)sc2CC(=O)OCC(=O)NCCC(C)C)cc1 | 1.3 µM [rising, partial curve, poor fit] |  |
| N=C1C(c2nc3ccccc3s2)=C(O)CN1CCCO | 0.206 µM [rising, full curve, poor fit] |  |
| CCOC(=O)c1nnn(-c2nn3nnnc3c3ccccc23)c1C | 35.5 µM [falling, single point] |  |
| CCOC(=O)c1c(-c2ccccc2)oc2ccc(O)c(CN3CCOCC3)c12 | 0.082 µM [rising, full curve, poor fit] |  |
| CCCC(=O)Nc1nnc(SCC)s1 | 1.84 µM [rising, partial curve] |  |
| Cc1cccc2sc(NC(=O)CCNS(=O)(=O)c3cccs3)nc12 | 7.08 µM [falling, full curve, poor fit] |  |
| O=C(Nc1ccc([N+](=O)[O-])cc1)c1ccccc1F | 15.8 µM [falling, partial curve, poor fit] |  |
| CCOC(=O)N1CCN(S(=O)(=O)c2c(C)[nH]c(=O)[nH]c2=O)CC1 | 1.03 µM [rising, full curve, poor fit] |  |
| Cc1ccc(S(=O)(=O)N2CCN(C(=O)c3ccccc3OCc3c(C)noc3C)CC2)cc1C | 23.1 µM [falling, partial curve, poor fit] |  |
| COc1ccc(NC(=S)NNc2ccc([N+](=O)[O-])cc2S(=O)(=O)Nc2ccc(C)cc2C)cc1 | 20.6 µM [falling, single point] |  |
| Cn1c(CC(=O)NNC(=O)c2ccc(Cl)nc2)nc2ccccc21 | 0.058 µM [rising, full curve, poor fit] |  |
| COc1ccc2c(c1)CC/C(=C\Nc1ccc3c(c1)OCO3)C2=O | 16.4 µM [falling, partial curve] |  |
| CC(=O)NCC(=O)OCC(=O)Nc1nc(-c2ccccc2)cs1 | 35.5 µM [falling, single point] |  |
| CCCN(CC(=O)Nc1cc(Cl)ccc1Cl)C(=O)/C=C/c1ccco1 | 18.4 µM [falling, single point] |  |
| COC(=O)c1cc(OC)c(OC)cc1NC(=O)c1cc(C(C)(C)C)oc1C | 3.55 µM [rising, partial curve, poor fit] |  |
| O=S(=O)(NC1c2cccc3cccc(c23)C1N1CCNCC1)c1ccc(Cl)cc1 (stereo unspecified) | 22.4 µM [falling, single point] |  |
| CCOc1c(Br)cc(/C=N\NC(=O)c2ccccc2)cc1OC | 29.1 µM [falling, single point] |  |

| Compound | AC50 [1] | AC50 [2] |
| --- | --- | --- |
| C/C(=N\NC(=S)NCc1ccccc1)c1cccs1 | 22.4 µM [falling, single point] | 3.98 µM [falling, single point] |
| O=C(NC1CCCC1)c1cccc2c1C(=O)c1ccc(/C=C/c3ccccc3)cc1S2(=O)=O | 0.184 µM [falling, full curve, poor fit] | 9.2 µM [rising, partial curve, poor fit] |
| COCc1cc(=O)[nH]c(SCC(=O)c2ccccc2)n1 | 11.2 µM [falling, partial curve] |  |
| CC1(C)Cc2c(cnn2-c2cccc(F)c2)C(NC(=O)CSc2ccccn2)C1 (stereo unspecified) | 35.5 µM [falling, partial curve, poor fit] |  |
| CCCOC(=O)c1[nH]c2c(c1C)C(=O)CC(c1cccs1)C2 (stereo unspecified) | 7.31 µM [rising, partial curve] | 5.17 µM [falling, partial curve, poor fit] |
| CCc1ccc(NC(=O)CCn2ccnc2C)cc1 | 6.51 µM [rising, single point] |  |
| Cc1ccc(-c2nc(N3CCN(C)CC3)c3ccccc3n2)cc1 | 3.98 µM [rising, partial curve, poor fit] |  |
| CCC12CN3CCN(CC(C3)/C1=N\NC(=O)c1ccc(Cl)cc1)C2 | 7.94 µM [falling, partial curve, poor fit] |  |
| O=C(COc1ccc(Cl)cc1)Nc1ccccc1C(=O)NCc1cccnc1 | 11.2 µM [falling, partial curve, poor fit] |  |
| Cc1c2c(n3c(nc4ccccc43)c1C#N)N(CCN(C)C)CC2 |  | 3.16 µM [rising, full curve, poor fit] |
| O=C1CSC(c2ccc(F)cc2)N1c1nc2ccccc2s1 (stereo unspecified) | 32.6 µM [falling, partial curve, poor fit] |  |
| CC(C)NC(=O)CCCc1c[nH]c2ccccc12 | 35.5 µM [falling, partial curve, poor fit] |  |
| CCC(CC)C(=O)Nc1cccc(-c2nc3ccccc3o2)c1 | 2.91 µM [rising, full curve, poor fit] |  |
| COCCCNC(=O)c1ccc(S(=O)(=O)c2ccc(Cl)cc2)c(NC(C)=O)c1 | 0.0891 µM [rising, full curve, poor fit] |  |
| COc1cccc(CNC(=O)CCCn2ccc3cc(S(=O)(=O)N4CCCC4)ccc32)c1 | 15.8 µM [falling, single point] |  |
| COc1ccc(S(=O)(=O)N(CC(=O)N/N=C/c2cccs2)c2cc(C)cc(C)c2)cc1OC |  | 32.6 µM [rising, partial curve, poor fit] |
| Cc1[nH]n(-c2cccc3ccccc23)c(=O)c1/C=N/NC(=O)c1cccc([N+](=O)[O-])c1 | 16.4 µM [falling, partial curve, poor fit] |  |
| Cc1ccc(S(=O)(=O)N2CCCC2CNC(=O)c2ccccc2)cc1 (stereo unspecified) | 18.4 µM [rising, partial curve, poor fit] |  |
| O=C(CN1CCN(c2ccccc2)CC1)Nc1scc2c1c(=O)oc1ccccc12 | 22.4 µM [rising, partial curve, poor fit] |  |

Given field by field: two of the compounds above
COCCCNC(=O)c1ccc(S(=O)(=O)c2ccc(Cl)cc2)c(NC(C)=O)c1
  AC50 [1]: 0.0891 µM [rising, full curve, poor fit]
COc1cccc(CNC(=O)CCCn2ccc3cc(S(=O)(=O)N4CCCC4)ccc32)c1
  AC50 [1]: 15.8 µM [falling, single point]
